Binding data for one molecule are collected here from doi:10.1101/2023.04.03.535356.

Results are given in words; binding and its absence hold for the method and conditions named. In cells and extracts the contact can be indirect. Some binding calls cover weakened binding; strength is not graded here. Tags and fused reporters may be left off the sequences shown.

Common to all, as to experiment: co-IP
The target of assay [1] is T1, Flag-tagged Unc93b1 H412R (UniProt Q8VCW4).
T1 sequence: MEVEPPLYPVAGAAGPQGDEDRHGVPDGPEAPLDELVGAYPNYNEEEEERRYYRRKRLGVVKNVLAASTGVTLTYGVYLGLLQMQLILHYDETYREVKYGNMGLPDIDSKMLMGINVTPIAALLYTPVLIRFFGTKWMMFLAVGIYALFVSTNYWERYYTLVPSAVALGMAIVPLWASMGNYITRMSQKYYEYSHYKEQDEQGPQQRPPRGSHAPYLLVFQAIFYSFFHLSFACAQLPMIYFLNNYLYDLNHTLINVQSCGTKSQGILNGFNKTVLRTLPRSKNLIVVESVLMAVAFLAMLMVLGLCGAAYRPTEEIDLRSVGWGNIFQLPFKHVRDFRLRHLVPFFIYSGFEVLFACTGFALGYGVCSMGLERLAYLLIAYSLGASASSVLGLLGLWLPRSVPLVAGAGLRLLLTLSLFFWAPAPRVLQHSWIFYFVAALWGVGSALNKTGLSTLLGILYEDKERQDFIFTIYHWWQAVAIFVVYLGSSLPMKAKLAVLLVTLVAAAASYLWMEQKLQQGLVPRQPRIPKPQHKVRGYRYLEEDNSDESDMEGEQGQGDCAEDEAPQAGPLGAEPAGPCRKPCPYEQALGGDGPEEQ

Assay [2] has as its target T2, HA-tagged TLR3 (UniProt Q99MB1).
T2 sequence: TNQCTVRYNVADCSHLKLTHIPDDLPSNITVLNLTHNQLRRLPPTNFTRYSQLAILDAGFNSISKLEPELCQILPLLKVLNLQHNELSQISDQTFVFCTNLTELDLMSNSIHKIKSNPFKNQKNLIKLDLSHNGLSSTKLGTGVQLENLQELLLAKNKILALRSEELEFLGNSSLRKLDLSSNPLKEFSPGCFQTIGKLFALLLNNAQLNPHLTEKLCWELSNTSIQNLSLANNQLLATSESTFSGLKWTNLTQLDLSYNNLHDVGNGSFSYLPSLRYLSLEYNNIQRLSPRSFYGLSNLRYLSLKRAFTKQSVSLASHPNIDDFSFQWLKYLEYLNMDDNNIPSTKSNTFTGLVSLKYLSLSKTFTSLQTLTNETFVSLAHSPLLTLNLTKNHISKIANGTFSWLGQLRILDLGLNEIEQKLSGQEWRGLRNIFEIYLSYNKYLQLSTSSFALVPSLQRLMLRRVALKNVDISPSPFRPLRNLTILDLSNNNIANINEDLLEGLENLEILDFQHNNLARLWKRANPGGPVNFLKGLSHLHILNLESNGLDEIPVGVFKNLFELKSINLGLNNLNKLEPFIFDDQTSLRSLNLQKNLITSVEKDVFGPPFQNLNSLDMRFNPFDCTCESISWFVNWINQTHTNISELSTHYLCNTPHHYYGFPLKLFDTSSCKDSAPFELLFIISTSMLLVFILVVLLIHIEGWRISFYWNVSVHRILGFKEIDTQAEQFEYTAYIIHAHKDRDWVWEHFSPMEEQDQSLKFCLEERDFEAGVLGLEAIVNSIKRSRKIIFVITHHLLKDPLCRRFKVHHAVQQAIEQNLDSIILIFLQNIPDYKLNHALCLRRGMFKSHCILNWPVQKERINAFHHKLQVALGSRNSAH

Assay [3] has as its target T3, Flag-tagged Unc93b1 (wild type) (UniProt Q8VCW4).
T3 sequence: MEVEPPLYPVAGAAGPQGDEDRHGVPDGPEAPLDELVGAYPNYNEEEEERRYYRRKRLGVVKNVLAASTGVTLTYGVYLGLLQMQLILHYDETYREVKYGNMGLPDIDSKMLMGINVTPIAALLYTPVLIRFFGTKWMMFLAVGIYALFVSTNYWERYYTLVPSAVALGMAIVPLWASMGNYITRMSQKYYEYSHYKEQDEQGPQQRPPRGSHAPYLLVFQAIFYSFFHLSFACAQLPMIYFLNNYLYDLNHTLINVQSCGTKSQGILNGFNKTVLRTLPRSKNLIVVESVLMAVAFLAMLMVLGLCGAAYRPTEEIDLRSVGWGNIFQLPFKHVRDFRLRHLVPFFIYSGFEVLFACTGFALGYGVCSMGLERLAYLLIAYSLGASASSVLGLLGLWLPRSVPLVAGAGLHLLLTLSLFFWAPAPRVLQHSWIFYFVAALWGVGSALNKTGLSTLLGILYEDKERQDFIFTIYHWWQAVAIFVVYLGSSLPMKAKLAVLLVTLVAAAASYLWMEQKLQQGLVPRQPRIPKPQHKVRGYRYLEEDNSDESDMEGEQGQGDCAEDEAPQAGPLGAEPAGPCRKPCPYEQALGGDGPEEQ

Assay [4] addresses T4, HA-tagged TLR9 (UniProt Q9EQU3).
T4 sequence: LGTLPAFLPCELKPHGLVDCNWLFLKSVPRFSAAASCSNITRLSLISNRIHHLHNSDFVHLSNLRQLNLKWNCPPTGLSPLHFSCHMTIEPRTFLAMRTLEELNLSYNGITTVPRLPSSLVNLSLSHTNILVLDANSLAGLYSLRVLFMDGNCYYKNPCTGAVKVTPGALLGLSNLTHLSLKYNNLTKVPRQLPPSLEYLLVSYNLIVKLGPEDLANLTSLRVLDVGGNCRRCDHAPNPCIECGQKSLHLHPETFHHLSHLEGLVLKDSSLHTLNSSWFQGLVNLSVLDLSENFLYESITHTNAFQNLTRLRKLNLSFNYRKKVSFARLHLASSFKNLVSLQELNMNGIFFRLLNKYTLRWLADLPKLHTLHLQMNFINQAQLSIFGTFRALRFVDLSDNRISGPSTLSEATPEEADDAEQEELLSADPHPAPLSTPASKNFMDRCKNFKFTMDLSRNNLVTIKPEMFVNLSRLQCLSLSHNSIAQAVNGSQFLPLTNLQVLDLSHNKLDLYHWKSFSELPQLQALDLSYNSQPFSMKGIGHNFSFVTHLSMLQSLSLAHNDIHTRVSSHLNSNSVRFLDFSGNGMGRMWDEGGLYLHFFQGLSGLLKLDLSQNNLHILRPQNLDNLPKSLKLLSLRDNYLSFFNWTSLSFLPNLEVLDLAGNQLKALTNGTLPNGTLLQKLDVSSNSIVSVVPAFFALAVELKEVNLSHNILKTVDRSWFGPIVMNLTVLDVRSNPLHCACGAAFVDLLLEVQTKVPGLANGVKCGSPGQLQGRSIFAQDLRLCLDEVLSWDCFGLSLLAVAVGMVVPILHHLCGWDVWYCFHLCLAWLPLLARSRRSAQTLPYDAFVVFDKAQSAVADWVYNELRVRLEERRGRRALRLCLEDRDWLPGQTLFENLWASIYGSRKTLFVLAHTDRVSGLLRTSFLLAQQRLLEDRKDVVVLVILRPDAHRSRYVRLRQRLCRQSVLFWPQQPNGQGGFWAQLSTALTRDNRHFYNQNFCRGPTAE

B1: endogenous Arl8b (protein, UniProt Q9CQW2 1-186)
chain: MLALISRLLDWFRSLFWKEEMELTLVGLQYSGKTTFVNVIASGQFSEDMIPTVGFNMRKVTKGNVTIKIWDIGGQPRFRSMWERYCRGVNAIVYMIDAADREKIEASRNELHNLLDKPQLQGIPVLVLGNKRDLPNALDEKQLIEKMNLSAIQDREICCYSISCKEKDNIDITLQWLIQHSKSRRS
Turning to B1, the binding result in assay [1] is given as “no binding”; in assay [2], “no binding”; in assay [3] it was “binds”; in assay [4], “no binding”.
